We go through one compound from patent US20200115446A1 (NATIONAL UNIVERSITY CORPORATION HOKKAIDO UNIVERSITY, priority 2017, published 2020).

Common to all, as to assay type: in vivo, rat
Data set [1] in a line: Bone mass (micro-CT, bone microstructure analysis) and BMD (DXA) of the distal femur, pediatric steroid-induced osteoporosis model rats. The conditions noted are these: GC model rats. The method, then:
(§1) 6-week-old growing female LEW/Cr1Crlj rats were used.
(§2) On the other hand, a steroid-induced osteoporosis model with rats has not been established. Thus, in this Example, a model rat with Prednisolone 25 mg/pellet/60 days implanted under the skin of a 6-week-old female LEW/Cr1Crlj rat was employed as a pediatric steroid-induced osteoporosis model. In this model, it was confirmed that 2, 4 and 6 weeks after implantation of prednisolone, the femur BMD decreased, and the maximum stress of each of the femur and the lumber vertebra decreased.
(3) Experimental Group (n=10 in Each Group) (i) Sham group: Sham-operation+Vehicle (PBS) (subcutaneous administration) (ii) GC group: Prednisolone (PSL) pellet 25 mg/pellet/60 days-subcutaneous implantation (GC)+Vehicle (PBS) (subcutaneous administration) (iii) GC+Siglec-15Ab group: GC treatment was performed, and an anti-Siglec-15 antibody was subcutaneously administered once every 3 weeks at a dosage of 1 mg/kg (low dosage) or at a dosage of 10 mg/kg (high dosage). The #32A1 antibody was used as the anti-Siglec-15 antibody. (iv) GC+ALN group: GC treatment was performed, and ALN was subcutaneously administered twice a week at a dosage of 0.014 mg/kg (low dosage) or at a dosage of 0.140 mg/kg (high dosage). […]
Micro-CT imaging of the femur and the tibia was performed, and the right femur length was measured. […]

Data set [2] has as its system osteoclasts. Description: TRACP staining of osteoclasts in the primary spongiosa region, pediatric steroid-induced osteoporosis model rats. The conditions noted are these: GC model rats, proximal tibia, age of 12 weeks, vs. GC group. The method, then: as §1, §2
(3) Experimental Group (n=10 in Each Group) (i) Sham group: Sham-operation+Vehicle (PBS) (subcutaneous administration) (ii) GC group: Prednisolone (PSL) pellet 25 mg/pellet/60 days-subcutaneous implantation (GC)+Vehicle (PBS) (subcutaneous administration) (iii) GC+Siglec-15Ab group: GC treatment was performed, and an anti-Siglec-15 antibody was subcutaneously administered once every 3 weeks at a dosage of 1 mg/kg (low dosage) or at a dosage of 10 mg/kg (high dosage). The #32A1 antibody was used as the anti-Siglec-15 antibody. (iv) GC+ALN group: GC treatment was performed, and ALN was subcutaneously administered twice a week at a dosage of 0.014 mg/kg (low dosage) or at a dosage of 0.140 mg/kg (high dosage).
6 weeks after the start of administration (age of 6 weeks to age of 12 weeks). […]

The test system of data set [3] is osteoclasts. Description: TRACP staining of osteoclasts, growing healthy rats. The conditions noted are these: age of 12 weeks, vs. Ct1 group. The procedure:
6-week-old growing male F344 rats were used.
(2) Experimental Groups (n=10 in Each Group) (i) Control group (hereinafter, referred to as “Ct1 group”) (ii) Anti-Siglec-15 antibody administration group (hereinafter, referred to as “Sig-15 Ab administration group”): The #32A1 antibody was used as an anti-Siglec-15 antibody. The anti-Siglec-15 antibody was subcutaneously administered once every 3 weeks at a dosage of 0.25, 1 or 4 mg/kg. (iii) Bisphosphonate administration group (hereinafter, referred to as “ALN administration group”): Alendronate (ALN) (manufactured by LKT Laboratories, Inc.) was subcutaneously administered twice a week at a dosage of 0.028 or 0.140 mg/kg.
6 weeks after the start of administration (age of 6 weeks to age of 12 weeks). After the end of the period (age of 12 weeks), the animals were euthanized, and evaluation was performed.
Decalcified tissue sample: knee joint disarticulation was performed, and samples of a coronal section tissue of the proximal tibia (proximal right knee tibia ½) and a fifth lumber vertebra coronal section tissue were prepared.
Osteoclastic cells were detected and evaluated by chemical staining with tartrate-resistant acid phosphatase (TRACP) (hereinafter, referred to as “TRACP staining”) and counter staining with methyl green. The growth cartilage part was detected and evaluated by safranine O staining (staining of acidic mucopolysaccharide).

Consider `NCCCC(O)(P(=O)(O)O)P(=O)(O)O` [ALN, Alendronate], for which the “longitudinal growth (indicated by 3D-CT bone mass distribution)” value in data set [1] is reported as “hindered”. Also, the “ratio of the osteoclast surface to the bone surface (Oc. Pm/B. Pm) in the primary spongiosa region” value in the data set on osteoclasts [2] is given as “significant decrease”. Also, the “ratio of the osteoclast surface to the bone surface (Oc. Pm/B. Pm)” value in the data set on osteoclasts [3] (lumber vertebra) and with osteoclasts [3] (proximal tibia secondary spongiosa) was “decreased” in each case. Moreover, the “ratio of the osteoclast surface to the bone surface in the primary spongiosa region (Oc. Pm/B. Pm)” value with osteoclasts [3] (proximal tibia) is listed as “significantly inferior”.
